{"source": "PubChem BioAssay AID1159584 (Peter MacCallum Cancer Centre, 2016)", "screen": "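Genes whose loss is lethal only together with E-cadherin loss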 (primary screen)", "system": "human MCF10A breast epithelial cells, parental and CDH1-null", "knock-down reagent": "siRNA against human genes", "detection": "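Cell viability by CellTiter-Glo ATP luminescence, each line scaled to the mean of mock wells across plates, then CDH1-null over parental ratio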", "reading the numbers": "CDH1-null / parental viability ratio: higher = CDH1-null cells survive relatively better than parental; CDH1-null viability vs mock: higher = more viable CDH1-null cells", "units": "CDH1-null viability vs mock in fraction of mock", "note": "Here is one part, drawn at random, of about 18,000 deposited reagents. Not all columns of the deposit are shown. Not stated in the record: the amount of reagent, the time to read-out."}
{"target gene": "TUSC2 (tumor suppressor 2, mitochondrial calcium regulator)", "CDH1-null / parental viability ratio": 1.42, "CDH1-null viability vs mock": 1.04}
{"target gene": "ZSCAN4 (zinc finger and SCAN domain containing 4)", "CDH1-null / parental viability ratio": 0.86, "CDH1-null viability vs mock": 0.83}
{"target gene": "HEYL", "CDH1-null / parental viability ratio": 1.29, "CDH1-null viability vs mock": 1.08}
{"target gene": "SMARCD1 (SWI/SNF related BAF chromatin remodeling complex subunit D1)", "CDH1-null / parental viability ratio": 0.75, "CDH1-null viability vs mock": 0.6}
{"target gene": "RFC2 (replication factor C subunit 2)", "CDH1-null / parental viability ratio": 1.15, "CDH1-null viability vs mock": 0.94}
{"target gene": "TRMT11 (tRNA methyltransferase 11)", "CDH1-null / parental viability ratio": 1.08, "CDH1-null viability vs mock": 0.82}
{"target gene": "ALKAL2 (ALK and LTK ligand 2)", "CDH1-null / parental viability ratio": 0.94, "CDH1-null viability vs mock": 0.66}
{"target gene": "BCCIP (BRCA2 and CDKN1A interacting protein)", "CDH1-null / parental viability ratio": 1, "CDH1-null viability vs mock": 0.42}
{"target gene": "HMX2 (H6 family homeobox 2)", "CDH1-null / parental viability ratio": 1.05, "CDH1-null viability vs mock": 0.92}
{"target gene": "ABCC9 (ATP binding cassette subfamily C member 9)", "CDH1-null / parental viability ratio": 1.3, "CDH1-null viability vs mock": 1.17}
{"target gene": "IER3IP1 (immediate early response 3 interacting protein 1)", "CDH1-null / parental viability ratio": 1.31, "CDH1-null viability vs mock": 0.94}
{"target gene": "CCNB1IP1 (cyclin B1 interacting protein 1)", "CDH1-null / parental viability ratio": 1.15, "CDH1-null viability vs mock": 1.18}
{"target gene": "TSPAN14 (tetraspanin 14)", "CDH1-null / parental viability ratio": 0.76, "CDH1-null viability vs mock": 0.5}
{"target gene": "PKN1 (protein kinase N1)", "CDH1-null / parental viability ratio": 0.85, "CDH1-null viability vs mock": 0.73}
{"target gene": "TDRD10 (tudor domain containing 10)", "CDH1-null / parental viability ratio": 0.91, "CDH1-null viability vs mock": 1.03}
{"target gene": "B9D2 (B9 domain containing 2)", "CDH1-null / parental viability ratio": 0.81, "CDH1-null viability vs mock": 0.83}

Part of the list above, showing only “CDH1-null viability vs mock”:
ZSCAN4 (zinc finger and SCAN domain containing 4): 0.83
HEYL: 1.08
SMARCD1 (SWI/SNF related BAF chromatin remodeling complex subunit D1): 0.6

The listing continues:
{"target gene": "RSPH9 (radial spoke head component 9)", "CDH1-null / parental viability ratio": 0.98, "CDH1-null viability vs mock": 0.87}
{"target gene": "TRIR (telomerase RNA component interacting RNase)", "CDH1-null / parental viability ratio": 1, "CDH1-null viability vs mock": 0.52}
{"target gene": "DAZ1 (deleted in azoospermia 1)", "CDH1-null / parental viability ratio": 0.94, "CDH1-null viability vs mock": 0.78}
{"target gene": "GDF5 (growth differentiation factor 5)", "CDH1-null / parental viability ratio": 1.05, "CDH1-null viability vs mock": 0.98}
{"target gene": "CDK8 (cyclin dependent kinase 8)", "CDH1-null / parental viability ratio": 1.06, "CDH1-null viability vs mock": 0.94}
{"target gene": "HTR2A (5-hydroxytryptamine receptor 2A)", "CDH1-null / parental viability ratio": 1.42, "CDH1-null viability vs mock": 0.98}
{"target gene": "EFEMP2 (EGF-like fibulin extracellular matrix protein 2)", "CDH1-null / parental viability ratio": 0.98, "CDH1-null viability vs mock": 0.84}
{"target gene": "KAAG1 (kidney associated DCDC2 antisense RNA 1)", "CDH1-null / parental viability ratio": 0.9, "CDH1-null viability vs mock": 0.54}
